These are yes or no findings as the source states them, for the method shown. Binding seen in cells or lysates may run through a third protein. Some results given as binding are weak or reduced against the parent protein; the word gives no strength.
Tests used:
[1] = target: ribosomal protein S5b (D. melanogaster) (UniProt Q9VFE4); assay: co-sedimentation
[2] = target: ribosomal protein S5b (D. melanogaster) (UniProt Q9VFE4); assay: co-IP

The chains behind the UniProt entries cited, without tags or fusion partners.
UniProt P29327: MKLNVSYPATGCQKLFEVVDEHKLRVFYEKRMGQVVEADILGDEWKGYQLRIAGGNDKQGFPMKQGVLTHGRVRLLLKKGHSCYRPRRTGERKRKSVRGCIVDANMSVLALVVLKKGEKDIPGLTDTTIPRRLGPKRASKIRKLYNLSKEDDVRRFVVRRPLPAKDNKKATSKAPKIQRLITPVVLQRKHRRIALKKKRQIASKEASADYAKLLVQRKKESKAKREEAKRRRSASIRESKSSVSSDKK

binding [1]: binds | binding [2]: binds
Substance: ribosomal protein S6 (from UniProt P29327 1-248)

From article doi:10.1101/600502
